# Laboratory results: the supplement of paper PMC10849652
# Sequences of proteins named here, by UniProt entry; tags and fusion partners are left off. A change or cut given only in a name is not applied to a line headed by its entry.
# UniProt Q9Y6V7: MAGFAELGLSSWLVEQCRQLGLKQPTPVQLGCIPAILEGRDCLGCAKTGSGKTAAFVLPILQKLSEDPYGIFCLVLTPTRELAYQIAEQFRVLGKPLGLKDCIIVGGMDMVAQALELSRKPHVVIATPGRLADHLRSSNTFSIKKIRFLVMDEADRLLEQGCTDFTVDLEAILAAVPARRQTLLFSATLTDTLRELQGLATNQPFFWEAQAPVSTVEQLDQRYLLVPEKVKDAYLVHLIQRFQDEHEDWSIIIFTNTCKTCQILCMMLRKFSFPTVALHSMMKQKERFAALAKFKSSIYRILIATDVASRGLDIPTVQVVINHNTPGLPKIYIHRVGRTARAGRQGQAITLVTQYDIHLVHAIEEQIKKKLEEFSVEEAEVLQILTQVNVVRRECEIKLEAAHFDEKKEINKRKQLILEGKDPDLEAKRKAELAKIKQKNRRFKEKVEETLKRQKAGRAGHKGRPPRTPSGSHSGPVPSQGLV
# UniProt P51397: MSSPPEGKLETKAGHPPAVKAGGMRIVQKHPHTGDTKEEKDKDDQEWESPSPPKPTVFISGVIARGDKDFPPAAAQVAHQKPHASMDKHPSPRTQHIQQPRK
# UniProt P11182, whole entry, looked up: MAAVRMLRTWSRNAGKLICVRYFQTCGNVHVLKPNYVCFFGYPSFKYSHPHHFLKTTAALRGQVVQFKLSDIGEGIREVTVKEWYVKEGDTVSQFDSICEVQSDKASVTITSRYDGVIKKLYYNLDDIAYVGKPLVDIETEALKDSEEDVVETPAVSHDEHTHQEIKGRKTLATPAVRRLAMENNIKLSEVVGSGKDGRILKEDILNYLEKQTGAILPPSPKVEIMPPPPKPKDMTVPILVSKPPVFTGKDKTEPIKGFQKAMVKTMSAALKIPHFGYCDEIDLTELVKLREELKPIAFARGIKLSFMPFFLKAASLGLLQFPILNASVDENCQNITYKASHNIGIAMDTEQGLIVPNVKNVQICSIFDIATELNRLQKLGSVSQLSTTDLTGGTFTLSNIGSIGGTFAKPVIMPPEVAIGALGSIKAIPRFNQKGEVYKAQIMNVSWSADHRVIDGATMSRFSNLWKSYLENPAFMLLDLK
# UniProt P98082: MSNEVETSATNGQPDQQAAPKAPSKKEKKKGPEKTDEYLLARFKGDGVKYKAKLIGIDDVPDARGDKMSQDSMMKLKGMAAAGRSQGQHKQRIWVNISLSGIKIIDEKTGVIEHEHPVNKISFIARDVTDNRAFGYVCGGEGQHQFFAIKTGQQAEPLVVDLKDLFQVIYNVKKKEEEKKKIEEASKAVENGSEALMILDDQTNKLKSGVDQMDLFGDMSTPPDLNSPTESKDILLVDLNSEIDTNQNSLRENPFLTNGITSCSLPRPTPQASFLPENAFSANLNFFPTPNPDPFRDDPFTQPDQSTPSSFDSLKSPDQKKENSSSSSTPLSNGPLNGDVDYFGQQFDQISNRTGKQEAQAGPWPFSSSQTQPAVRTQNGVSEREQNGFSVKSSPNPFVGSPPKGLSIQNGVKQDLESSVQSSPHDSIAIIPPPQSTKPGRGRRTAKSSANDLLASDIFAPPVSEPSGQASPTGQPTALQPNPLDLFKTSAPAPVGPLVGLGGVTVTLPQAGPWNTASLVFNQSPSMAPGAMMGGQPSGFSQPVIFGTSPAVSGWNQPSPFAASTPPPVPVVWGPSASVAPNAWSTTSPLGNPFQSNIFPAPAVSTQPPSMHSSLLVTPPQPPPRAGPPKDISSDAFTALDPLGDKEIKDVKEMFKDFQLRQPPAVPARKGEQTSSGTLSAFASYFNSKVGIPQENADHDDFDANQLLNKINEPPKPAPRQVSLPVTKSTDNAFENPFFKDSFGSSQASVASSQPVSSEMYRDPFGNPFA
# UniProt O95865: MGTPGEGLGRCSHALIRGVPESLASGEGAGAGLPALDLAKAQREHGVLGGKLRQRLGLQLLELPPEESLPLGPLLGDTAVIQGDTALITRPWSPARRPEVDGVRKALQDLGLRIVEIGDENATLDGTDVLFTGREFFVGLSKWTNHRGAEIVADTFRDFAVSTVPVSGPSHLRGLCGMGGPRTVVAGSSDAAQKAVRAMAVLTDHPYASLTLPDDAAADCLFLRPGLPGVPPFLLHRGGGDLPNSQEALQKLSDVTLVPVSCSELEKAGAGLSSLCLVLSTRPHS
# UniProt O00399, whole entry, looked up: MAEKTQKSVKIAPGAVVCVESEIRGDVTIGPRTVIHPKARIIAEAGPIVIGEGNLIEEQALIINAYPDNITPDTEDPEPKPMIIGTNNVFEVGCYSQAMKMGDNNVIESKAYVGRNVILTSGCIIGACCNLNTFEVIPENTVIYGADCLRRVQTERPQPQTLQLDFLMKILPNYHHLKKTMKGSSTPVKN
# UniProt Q6P3S1: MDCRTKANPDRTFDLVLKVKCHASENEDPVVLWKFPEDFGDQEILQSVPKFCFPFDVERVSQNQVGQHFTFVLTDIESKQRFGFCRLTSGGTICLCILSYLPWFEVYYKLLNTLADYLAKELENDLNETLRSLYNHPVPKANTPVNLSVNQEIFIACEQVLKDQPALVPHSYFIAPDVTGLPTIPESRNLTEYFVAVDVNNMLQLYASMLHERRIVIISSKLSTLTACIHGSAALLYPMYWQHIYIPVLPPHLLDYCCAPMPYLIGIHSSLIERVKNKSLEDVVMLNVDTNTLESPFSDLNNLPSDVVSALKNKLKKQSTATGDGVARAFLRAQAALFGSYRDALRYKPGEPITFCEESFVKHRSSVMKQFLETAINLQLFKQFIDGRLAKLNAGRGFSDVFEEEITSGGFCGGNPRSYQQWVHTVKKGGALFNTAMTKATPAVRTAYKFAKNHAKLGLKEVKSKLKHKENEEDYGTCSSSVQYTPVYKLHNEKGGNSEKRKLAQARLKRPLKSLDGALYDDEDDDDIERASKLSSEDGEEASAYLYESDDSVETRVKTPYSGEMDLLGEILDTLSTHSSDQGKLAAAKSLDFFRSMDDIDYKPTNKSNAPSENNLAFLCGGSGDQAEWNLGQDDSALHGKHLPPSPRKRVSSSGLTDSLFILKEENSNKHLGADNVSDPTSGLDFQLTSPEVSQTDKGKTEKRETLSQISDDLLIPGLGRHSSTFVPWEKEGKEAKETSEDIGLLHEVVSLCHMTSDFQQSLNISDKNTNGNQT
# UniProt Q6PI48: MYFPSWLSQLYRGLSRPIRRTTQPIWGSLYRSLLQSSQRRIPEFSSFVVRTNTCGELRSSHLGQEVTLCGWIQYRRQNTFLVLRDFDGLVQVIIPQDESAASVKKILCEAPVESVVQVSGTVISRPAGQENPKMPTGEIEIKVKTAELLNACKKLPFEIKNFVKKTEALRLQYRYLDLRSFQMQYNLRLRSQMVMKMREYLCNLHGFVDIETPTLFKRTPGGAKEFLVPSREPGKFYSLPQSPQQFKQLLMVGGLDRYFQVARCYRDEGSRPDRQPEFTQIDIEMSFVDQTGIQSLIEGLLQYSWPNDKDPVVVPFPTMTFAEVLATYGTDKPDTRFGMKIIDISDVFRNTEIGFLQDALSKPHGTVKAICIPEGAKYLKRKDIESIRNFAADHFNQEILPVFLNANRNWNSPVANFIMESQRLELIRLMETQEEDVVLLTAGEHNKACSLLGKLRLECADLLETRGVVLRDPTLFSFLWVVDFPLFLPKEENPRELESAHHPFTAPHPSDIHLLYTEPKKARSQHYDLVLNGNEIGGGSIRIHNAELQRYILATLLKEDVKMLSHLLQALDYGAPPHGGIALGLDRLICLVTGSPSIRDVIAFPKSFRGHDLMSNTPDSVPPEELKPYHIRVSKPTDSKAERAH
# UniProt Q05D60: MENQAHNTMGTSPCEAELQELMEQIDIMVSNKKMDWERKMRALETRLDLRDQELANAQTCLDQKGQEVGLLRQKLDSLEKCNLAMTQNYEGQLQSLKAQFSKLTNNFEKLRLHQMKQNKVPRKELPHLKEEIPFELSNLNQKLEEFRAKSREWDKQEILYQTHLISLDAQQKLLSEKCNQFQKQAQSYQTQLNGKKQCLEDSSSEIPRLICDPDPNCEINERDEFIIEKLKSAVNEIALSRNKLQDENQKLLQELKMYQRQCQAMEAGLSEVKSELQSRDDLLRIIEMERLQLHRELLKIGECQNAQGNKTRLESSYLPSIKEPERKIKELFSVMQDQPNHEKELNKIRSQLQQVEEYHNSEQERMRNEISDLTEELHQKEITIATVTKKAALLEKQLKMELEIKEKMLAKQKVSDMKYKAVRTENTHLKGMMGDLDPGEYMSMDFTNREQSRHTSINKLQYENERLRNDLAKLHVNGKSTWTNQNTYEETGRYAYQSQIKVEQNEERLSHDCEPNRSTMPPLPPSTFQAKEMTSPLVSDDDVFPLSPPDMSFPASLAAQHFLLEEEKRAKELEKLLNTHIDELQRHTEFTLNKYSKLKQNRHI
# UniProt Q99418: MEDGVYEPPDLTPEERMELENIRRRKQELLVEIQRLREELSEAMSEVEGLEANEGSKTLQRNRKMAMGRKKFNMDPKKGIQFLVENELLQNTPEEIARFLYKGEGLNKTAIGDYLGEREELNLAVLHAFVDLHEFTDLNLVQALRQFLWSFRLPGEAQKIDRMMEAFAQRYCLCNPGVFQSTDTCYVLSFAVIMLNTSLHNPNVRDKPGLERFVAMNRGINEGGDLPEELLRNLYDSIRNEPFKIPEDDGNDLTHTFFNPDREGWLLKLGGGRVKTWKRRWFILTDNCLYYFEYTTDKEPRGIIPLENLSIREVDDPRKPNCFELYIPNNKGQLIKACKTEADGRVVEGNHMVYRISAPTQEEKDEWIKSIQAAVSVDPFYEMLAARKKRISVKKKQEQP
# UniProt Q14203, whole entry, looked up: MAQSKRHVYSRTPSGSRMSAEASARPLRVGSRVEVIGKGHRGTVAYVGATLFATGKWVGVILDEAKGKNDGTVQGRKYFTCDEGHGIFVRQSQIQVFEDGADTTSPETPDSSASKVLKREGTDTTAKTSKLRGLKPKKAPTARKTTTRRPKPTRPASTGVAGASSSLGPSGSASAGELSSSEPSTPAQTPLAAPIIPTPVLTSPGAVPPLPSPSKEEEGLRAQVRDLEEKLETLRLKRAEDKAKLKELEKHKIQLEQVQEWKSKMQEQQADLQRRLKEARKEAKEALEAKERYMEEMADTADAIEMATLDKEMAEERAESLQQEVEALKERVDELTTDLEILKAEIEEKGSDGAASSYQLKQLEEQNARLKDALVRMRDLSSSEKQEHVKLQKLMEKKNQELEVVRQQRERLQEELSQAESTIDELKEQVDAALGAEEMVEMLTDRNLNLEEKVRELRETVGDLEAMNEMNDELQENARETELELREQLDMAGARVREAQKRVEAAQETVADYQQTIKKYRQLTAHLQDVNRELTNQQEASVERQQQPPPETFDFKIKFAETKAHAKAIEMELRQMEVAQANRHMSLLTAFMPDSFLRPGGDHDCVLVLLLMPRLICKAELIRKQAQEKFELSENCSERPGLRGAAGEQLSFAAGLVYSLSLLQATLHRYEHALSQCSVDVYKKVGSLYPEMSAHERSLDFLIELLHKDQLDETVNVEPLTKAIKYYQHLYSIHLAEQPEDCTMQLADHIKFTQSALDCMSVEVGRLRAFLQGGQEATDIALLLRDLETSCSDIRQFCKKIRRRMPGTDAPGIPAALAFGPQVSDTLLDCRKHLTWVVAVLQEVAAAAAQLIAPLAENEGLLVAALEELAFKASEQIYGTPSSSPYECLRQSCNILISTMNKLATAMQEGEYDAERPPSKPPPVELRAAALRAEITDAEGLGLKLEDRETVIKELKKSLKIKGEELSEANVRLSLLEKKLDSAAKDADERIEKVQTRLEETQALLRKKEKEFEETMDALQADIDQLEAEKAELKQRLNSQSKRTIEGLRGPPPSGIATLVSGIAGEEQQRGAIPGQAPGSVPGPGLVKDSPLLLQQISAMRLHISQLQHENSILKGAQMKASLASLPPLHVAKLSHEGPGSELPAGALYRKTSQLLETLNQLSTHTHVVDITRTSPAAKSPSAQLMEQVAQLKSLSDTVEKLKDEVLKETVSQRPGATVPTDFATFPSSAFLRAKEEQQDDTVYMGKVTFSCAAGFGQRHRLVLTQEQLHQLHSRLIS
# UniProt Q13561, whole entry, looked up: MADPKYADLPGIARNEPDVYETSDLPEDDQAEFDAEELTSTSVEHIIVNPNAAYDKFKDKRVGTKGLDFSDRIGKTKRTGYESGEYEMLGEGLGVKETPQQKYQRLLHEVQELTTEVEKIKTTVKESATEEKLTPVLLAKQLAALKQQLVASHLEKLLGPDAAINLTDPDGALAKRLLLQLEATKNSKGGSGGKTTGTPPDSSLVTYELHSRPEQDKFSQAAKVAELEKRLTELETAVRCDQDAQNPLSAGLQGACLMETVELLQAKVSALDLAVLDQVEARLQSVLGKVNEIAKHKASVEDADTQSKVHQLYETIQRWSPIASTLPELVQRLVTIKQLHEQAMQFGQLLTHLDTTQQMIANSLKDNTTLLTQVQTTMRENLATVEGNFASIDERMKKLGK
# UniProt Q9H9R9: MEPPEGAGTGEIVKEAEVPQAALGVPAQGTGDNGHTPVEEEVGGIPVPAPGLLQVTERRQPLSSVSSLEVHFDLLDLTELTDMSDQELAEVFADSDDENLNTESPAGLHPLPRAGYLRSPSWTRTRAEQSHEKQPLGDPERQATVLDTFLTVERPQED
# The other results are listed elsewhere or left out.
# How the values were obtained:
# Assay in all cases: log2 fold change, soluble protein after heating vs DMSO (PISA); higher = thermal stabilisation; K562 lysate, 10 uM; active = over 0.2 and 3.5 SD of the protein, either way, in both replicates (recomputed)
# lapatinib = compound: CS(=O)(=O)CCNCc1ccc(-c2ccc3ncnc(Nc4ccc(OCc5cccc(F)c5)c(Cl)c4)c3c2)o1 [lapatinib]
# Summary of the method: (§1)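 K562 pellets were dounce-homogenised in PBS pH 7.4 with 1 mM MgCl2, and the crude extract at 1 mg/mL protein was treated with 10 μM compound for 30 min. Aliquots were heated for 3 min across 48°C-58°C, pooled, and brought to 0.5% NP-40 at 4°C; soluble protein was the supernatant after 21,000xg for 90 min. Soluble protein was quantified by TMTpro 16plex LC-MS/MS with channel sums equalised, and reported as log2 fold change in thermal stability against DMSO controls, with values from duplicates.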
# pictilisib = compound: CS(=O)(=O)N1CCN(Cc2cc3nc(-c4cccc5[nH]ncc45)nc(N4CCOCC4)c3s2)CC1 [pictilisib]
# Summary of the method: as §1
# crizotinib = compound: C[C@@H](Oc1cc(-c2cnn(C3CCNCC3)c2)cnc1N)c1c(Cl)ccc(F)c1Cl [crizotinib]
# Summary of the method: as §1
# [1] = compound: C[C@H](C1=CC=C(C=C1)C(=O)NC2=C3C=CNC3=NC=C2)N
# Summary of the method: as §1
# duvelisib = compound: C[C@H](Nc1ncnc2nc[nH]c12)c1cc2cccc(Cl)c2c(=O)n1-c1ccccc1 [duvelisib]
# Summary of the method: as §1
# gandotinib = compound: Cc1cc(Nc2cc(CN3CCOCC3)c3nc(C)c(Cc4ccc(Cl)cc4F)n3n2)n[nH]1 [gandotinib]
# Summary of the method: as §1
# tozasertib = compound: Cc1cc(Nc2cc(N3CCN(C)CC3)nc(Sc3ccc(NC(=O)C4CC4)cc3)n2)n[nH]1 [tozasertib]
# Summary of the method: as §1
# doramapimod = compound: Cc1ccc(-n2nc(C(C)(C)C)cc2NC(=O)Nc2ccc(OCCN3CCOCC3)c3ccccc23)cc1 [doramapimod]
# Summary of the method: as §1
# bafetinib = compound: Cc1ccc(NC(=O)c2ccc(CN3CC[C@H](N(C)C)C3)c(C(F)(F)F)c2)cc1Nc1nccc(-c2cncnc2)n1 [bafetinib]
# Summary of the method: as §1
# [2] = compound: Cc1cccc(CC(=O)N2CCc3c2ccc(-c2cn(C)c4ncnc(N)c24)c3F)n1
# Summary of the method: as §1
Target,log2 fold change (lapatinib),log2 fold change (pictilisib),log2 fold change (crizotinib),log2 fold change [1],log2 fold change (duvelisib),log2 fold change (gandotinib),log2 fold change (tozasertib),log2 fold change (doramapimod),log2 fold change (bafetinib),log2 fold change [2]
DDX49 (UniProt Q9Y6V7),inactive: -0.01,inactive: -0.069,inactive: 0.027,inactive: -0.001,inactive: 0.158,inactive: -0.04,inactive: 0.008,inactive: -0.023,inactive: -0.027,inactive: 0.039
DAP (UniProt P51397),inactive: -0.009,inactive: -0.086,inactive: 0.032,inactive: -0.019,inactive: 0.031,inactive: 0.065,inactive: -0.002,inactive: -0.025,inactive: -0.055,inactive: 0.042
DAGLB (UniProt Q8NCG7),inactive: -0.003,inactive: 0.011,inactive: 0.046,inactive: -0.009,inactive: -0.05,inactive: -0.072,inactive: 0.035,inactive: 0.059,inactive: -0.031,inactive: -0.042
DDX6 (UniProt P26196),inactive: 0.003,inactive: -0.015,inactive: 0.003,inactive: -0.005,inactive: 0.007,inactive: -0.011,inactive: -0.002,inactive: 0.002,inactive: 0.007,inactive: 0.006
DBT (UniProt P11182),inactive: 0.006,inactive: -0.037,inactive: -0.022,inactive: -0.024,inactive: 0.022,inactive: 0.006,inactive: 0.033,inactive: -0.003,inactive: -0.037,inactive: -0.02
DAB2 (UniProt P98082),inactive: 0.009,inactive: -0.063,inactive: 0.003,inactive: -0.03,inactive: 0.01,inactive: -0.004,inactive: -0.019,inactive: -0.01,inactive: -0.054,inactive: -0.019
DDAH2 (UniProt O95865),inactive: 0.049,inactive: -0.028,inactive: 0.025,inactive: 0.101,inactive: -0.028,inactive: -0.097,inactive: 0.026,inactive: 0.053,inactive: -0.003,inactive: -0.091
DCAF1 (UniProt Q9Y4B6),inactive: -0.035,inactive: -0.001,inactive: -0.017,inactive: -0.027,inactive: 0.003,inactive: -0.015,inactive: 0.004,inactive: 0.012,inactive: -0.035,inactive: 0.028
DECR2 (UniProt Q9NUI1),inactive: -0.191,inactive: 0.009,inactive: -0.049,inactive: 0.063,inactive: 0.042,inactive: -0.061,inactive: 0.064,inactive: -0.032,inactive: -0.039,inactive: 0.013
DCAF8 (UniProt Q5TAQ9),inactive: 0.01,inactive: -0.014,inactive: -0.043,inactive: -0.032,inactive: 0.003,inactive: 0.058,inactive: 0.006,inactive: 0.032,inactive: 0.001,inactive: 0.054
DCTN6 (UniProt O00399),inactive: 0.004,inactive: -0.005,inactive: 0.068,inactive: 0.002,inactive: -0.009,inactive: -0.02,inactive: -0.014,inactive: -0.009,inactive: -0.07,inactive: 0.004
DENND1B (UniProt Q6P3S1),inactive: 0.1,inactive: 0.096,inactive: -0.019,inactive: 0.003,inactive: -0.08,inactive: -0.194,,inactive: -0.072,inactive: 0.154,inactive: -0.03
DDA1 (UniProt Q9BW61),inactive: 0.011,inactive: -0.025,inactive: 0.025,inactive: -0.013,inactive: -0.013,inactive: -0.019,inactive: -0.037,inactive: 0.013,inactive: 0.011,inactive: -0.062
CYP4V2 (UniProt Q6ZWL3),inactive: 0.049,active: -0.441,inactive: 0.12,,inactive: 0.031,,,inactive: 0.027,inactive: 0.177,
DARS2 (UniProt Q6PI48),inactive: -0.001,inactive: 0.028,inactive: -0.038,inactive: -0.021,inactive: 0.009,inactive: -0.036,inactive: 0.074,inactive: 0.031,inactive: -0.044,inactive: 0.014
DDX23 (UniProt Q9BUQ8),inactive: 0.004,inactive: -0.025,inactive: -0.021,inactive: 0.019,inactive: -0.014,inactive: -0.083,inactive: -0.013,inactive: -0.003,inactive: -0.086,inactive: 0.015

Target,log2 fold change (lapatinib),log2 fold change (pictilisib),log2 fold change (crizotinib),log2 fold change [1],log2 fold change (duvelisib),log2 fold change (gandotinib),log2 fold change (tozasertib),log2 fold change (doramapimod),log2 fold change (bafetinib),log2 fold change [2]
DDX19B (UniProt Q9UMR2),inactive: -0.004,inactive: 0.01,inactive: -0.061,inactive: -0.021,inactive: 0.005,inactive: -0.012,inactive: -0.027,inactive: 0.019,inactive: -0.026,inactive: 0.042
DEUP1 (UniProt Q05D60),inactive: -0.133,inactive: -0.063,inactive: 0.052,,inactive: 0.044,,inactive: 0.072,inactive: -0.086,inactive: -0.138,
DDOST (UniProt P39656),inactive: -0.014,inactive: 0.017,inactive: -0.021,inactive: -0.103,inactive: -0.004,inactive: 0.061,inactive: 0.003,inactive: 0.002,inactive: -0.041,inactive: 0.08
DAZAP1 (UniProt Q96EP5),inactive: 0.017,inactive: -0.043,inactive: 0.073,inactive: 0.035,inactive: 0.015,inactive: 0,inactive: 0.064,inactive: 0.003,inactive: 0.243,inactive: -0.04
CYTH2 (UniProt Q99418),inactive: -0.026,inactive: -0.089,,inactive: 0.056,inactive: -0.089,inactive: 0.025,inactive: -0.061,,inactive: 0.025,inactive: 0.023
DBNL (UniProt Q9UJU6),inactive: -0.03,inactive: -0.049,,inactive: -0.114,inactive: -0.363,inactive: -0.053,,,inactive: -0.182,inactive: 0.066
DCUN1D5 (UniProt Q9BTE7),inactive: -0.096,inactive: 0.019,inactive: -0.076,inactive: -0.012,inactive: 0.058,inactive: -0.068,inactive: -0.062,inactive: 0.009,inactive: -0.113,inactive: 0.03
DCTN1 isoform 4 (UniProt Q14203),inactive: -0.039,,inactive: -0.031,inactive: 0.054,inactive: -0.032,inactive: 0.121,inactive: 0.173,inactive: -0.103,,inactive: -0.239
DDX4 (UniProt Q9NQI0),inactive: -0.045,inactive: 0.035,,active: -0.481,inactive: 0.02,inactive: 0.132,inactive: 0.078,,inactive: -0.167,inactive: 0.174
DCTN2 isoform 3 (UniProt Q13561),inactive: -0.01,inactive: -0.048,inactive: 0.032,inactive: -0.073,inactive: 0.012,inactive: 0.043,inactive: 0.014,inactive: 0.004,inactive: -0.008,inactive: 0.006
DENND6A (UniProt Q8IWF6),inactive: -0.077,inactive: -0.079,inactive: 0.028,inactive: -0.013,inactive: -0.022,inactive: -0.006,inactive: -0.038,inactive: 0.054,inactive: -0.099,inactive: 0.086
DBNDD1 isoform 3 (UniProt Q9H9R9),inactive: 0.05,,inactive: -0.081,inactive: -0.063,inactive: 0.018,inactive: 0.073,inactive: 0.162,inactive: 0.041,,inactive: -0.024
DDX55 (UniProt Q8NHQ9),inactive: -0.007,inactive: 0.048,inactive: -0.023,inactive: -0.062,inactive: 0.029,inactive: -0.064,inactive: -0.002,inactive: 0.018,inactive: -0.004,inactive: 0.112
"DDX46, A0A0C4DG89",inactive: -0.049,inactive: 0.023,,inactive: 0.067,inactive: 0.084,inactive: -0.194,inactive: -0.038,,inactive: -0.196,inactive: -0.049
DDX47 (UniProt Q9H0S4),inactive: -0.03,inactive: 0.001,inactive: -0.06,inactive: 0.011,inactive: -0.02,inactive: 0.006,inactive: 0.05,inactive: 0.048,inactive: -0.044,inactive: 0.14
DCAF4 (UniProt Q8WV16),inactive: -0.004,inactive: -0.032,inactive: -0.153,inactive: -0.056,inactive: -0.016,inactive: 0.083,inactive: 0.095,inactive: 0.082,inactive: 0.202,inactive: 0.255

# Just log2 fold change (lapatinib) and log2 fold change (pictilisib) (two entries from above):
Target | log2 fold change (lapatinib) | log2 fold change (pictilisib)
DDX6 (UniProt P26196) | inactive: 0.003 | inactive: -0.015
DCUN1D5 (UniProt Q9BTE7) | inactive: -0.096 | inactive: 0.019
